Reference: PubChem BioAssay AID686938 (Drosophila RNAi Screening Center, 2013)
Test: 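Looking for CRAC channel components and the factors controlling them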 (primary screen). System: Drosophila S2R+ cells. Knock-down reagent: long dsRNA against Drosophila genes, about 0.25 µg dsRNA per well, roughly 10,000 cells. Timing: 5 days of knock-down before the calcium assay. Treatment: thapsigargin (SERCA pump blocker) to empty calcium stores; entry signal taken 4 min after adding it. Measured: 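Per-well fluo-4 fluorescence in two replicates, unnormalised, measured in resting cells and 4 min after store depletion by the SERCA blocker thapsigargin; ratio of the two present in few wells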. Scale: calcium entry signal: higher = stronger calcium signal after store depletion; entry to resting ratio: higher = more calcium entry relative to resting level; resting calcium signal: higher = higher resting calcium signal. Rule for the call: 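Hit if the duplicate-averaged plate z-score for entry over resting signal is under −3; wells with weak total dye signal (Fmax z < −2) or more than 5 off-targets removed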. Calls: active = strongly reduced calcium entry; inactive = no strong reduction.
The deposit covers about 23,000 reagents; this is an unselected part of those with a known target gene and a result. Of all reagents, 75 (0.33%) are marked active. 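Raw plate signals without normalisation; calls rest on plate z-scores that were not deposited; ratio present for only 364 wells.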 No sequences are given here. Not stated in the record: the dose of the treatment.

Against Hr4 [DRSC18495], the values are calcium entry signal, replicate 1 (fluorescence units) = 4.23e7; calcium entry signal, replicate 2 (fluorescence units) = 4.00e7; entry to resting ratio 2.1; resting calcium signal, replicate 1 (fluorescence units) = 1.99e7; resting calcium signal, replicate 2 (fluorescence units) = 2.25e7; inactive.
After knock-down of Hr4 [DRSC18599] the results were calcium entry signal, replicate 1 (fluorescence units) = 3.60e7; calcium entry signal, replicate 2 (fluorescence units) = 7.55e7; entry to resting ratio 2.1; resting calcium signal, replicate 1 (fluorescence units) = 1.72e7; resting calcium signal, replicate 2 (fluorescence units) = 2.79e7; inactive.
Silencing of Hr4 [DRSC22269] resulted in: calcium entry signal, replicate 1 (fluorescence units) = 2.31e7; calcium entry signal, replicate 2 (fluorescence units) = 4.02e7; resting calcium signal, replicate 1 (fluorescence units) = 1.37e7; resting calcium signal, replicate 2 (fluorescence units) = 1.62e7; inactive.
For Hr4 [DRSC22677] the deposit lists calcium entry signal, replicate 1 (fluorescence units) = 1.71e7; calcium entry signal, replicate 2 (fluorescence units) = 3.65e7; resting calcium signal, replicate 1 (fluorescence units) = 1.10e7; resting calcium signal, replicate 2 (fluorescence units) = 1.67e7; inactive.
After knock-down of Hr4 [DRSC23080] the results were calcium entry signal, replicate 1 (fluorescence units) = 5.21e7; calcium entry signal, replicate 2 (fluorescence units) = 3.24e7; resting calcium signal, replicate 1 (fluorescence units) = 2.52e7; resting calcium signal, replicate 2 (fluorescence units) = 1.41e7; inactive.
Hr4 [DRSC23251] showed calcium entry signal, replicate 1 (fluorescence units) = 2.93e7; calcium entry signal, replicate 2 (fluorescence units) = 3.30e7; resting calcium signal, replicate 1 (fluorescence units) = 1.93e7; resting calcium signal, replicate 2 (fluorescence units) = 1.66e7; inactive.

Laid out differently: 2 of the entries above.
{"predicted target":"Hr4","dsRNA":"DRSC18599","calcium entry signal, replicate 1 (fluorescence units)":3.60e7,"calcium entry signal, replicate 2 (fluorescence units)":7.55e7,"entry to resting ratio":2.1,"resting calcium signal, replicate 1 (fluorescence units)":1.72e7,"resting calcium signal, replicate 2 (fluorescence units)":2.79e7,"call":"inactive"}
{"predicted target":"Hr4","dsRNA":"DRSC22269","calcium entry signal, replicate 1 (fluorescence units)":2.31e7,"calcium entry signal, replicate 2 (fluorescence units)":4.02e7,"resting calcium signal, replicate 1 (fluorescence units)":1.37e7,"resting calcium signal, replicate 2 (fluorescence units)":1.62e7,"call":"inactive"}

The listing continues.
With knock-down of Ccdc58 [DRSC10218], the record shows calcium entry signal, replicate 1 (fluorescence units) = 3.57e7; calcium entry signal, replicate 2 (fluorescence units) = 4.19e7; resting calcium signal, replicate 1 (fluorescence units) = 1.70e7; resting calcium signal, replicate 2 (fluorescence units) = 2.77e7; inactive.
fln [DRSC11346] gave calcium entry signal, replicate 1 (fluorescence units) = 3.74e7; calcium entry signal, replicate 2 (fluorescence units) = 4.43e7; resting calcium signal, replicate 1 (fluorescence units) = 1.71e7; resting calcium signal, replicate 2 (fluorescence units) = 2.91e7; inactive.
Silencing of Scsalpha2 [DRSC16003] came out at: calcium entry signal, replicate 1 (fluorescence units) = 3.44e7; calcium entry signal, replicate 2 (fluorescence units) = 2.69e7; resting calcium signal, replicate 1 (fluorescence units) = 1.71e7; resting calcium signal, replicate 2 (fluorescence units) = 1.32e7; inactive.
Depletion of grim [DRSC11352] resulted in: calcium entry signal, replicate 1 (fluorescence units) = 3.45e7; calcium entry signal, replicate 2 (fluorescence units) = 6.18e7; resting calcium signal, replicate 1 (fluorescence units) = 2.05e7; resting calcium signal, replicate 2 (fluorescence units) = 2.97e7; inactive.
Against grim [DRSC23169], the values are calcium entry signal, replicate 1 (fluorescence units) = 2.76e7; calcium entry signal, replicate 2 (fluorescence units) = 3.17e7; resting calcium signal, replicate 1 (fluorescence units) = 1.37e7; resting calcium signal, replicate 2 (fluorescence units) = 1.39e7; inactive.
CG9902 [DRSC20212] showed calcium entry signal, replicate 1 (fluorescence units) = 2.44e7; calcium entry signal, replicate 2 (fluorescence units) = 3.05e7; resting calcium signal, replicate 1 (fluorescence units) = 1.37e7; resting calcium signal, replicate 2 (fluorescence units) = 1.38e7; inactive.
